# The other results are listed elsewhere or left out.
# B1: Mnn9-2N3 (Aspergillus fumigatus) (protein)
# chain: MAVARRMRRTNPITLLLAAILAIGFFIFVLSPSTTSASPVKAGSASSSSTSQQRREDNAAENPLSPPTKPFFKSQPVRHDGQQAPPPVVQYNLNQLSSTSTSAANGERILILTPMARFVPEYWDNVVKLTYPHELISIGFIIPKNKEGNAALAALEAAIAKTQSGPIDKRFASISILRQDFEPPLQSQDEKERHKISNQKARRESMSRARNSLLFTTLGPATAWVLWLDADIVETPPTLIQDLTAHDHPVLVPNCYQRYYNSEKKKMDVRPYDYNSWIDSSTAQSMAAEMGPDEILLEGYAEMPTYRTLMAHLADTANPNPKKVIELDGVGGTALMVKAEVHRDGAMFPAFPFYHLVETEGFAKMAKRLGYSVYGLPDYFVSRNFFFFFFFFFFG
# Columns and labels:
# Experiment in all cases: glycan array binding signal (z-score within array); higher = stronger binding
# Conditions in all cases: glycan notation: IUPAC condensed, linker removed
# [1] = biological target: GlcNAc(a1-4)Gal(b1-3)GlcNAc
# Procedure, shortened: (§1)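 The binding signal is a Z-score computed within each array. Data were drawn from 3228 arrays in the Consortium for Functional Glycomics database, restricted to those with a known protein sequence. Scores were averaged over arrays of the same protein sequence at different concentrations or buffers, and over linkers, and negative values can be taken as non-binding.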
# [2] = biological target: GlcNAc(a1-4)Gal(b1-4)GalNAc
# Procedure, shortened: as §1
# [3] = biological target: GlcNAc(a1-4)Gal(b1-4)GlcNAc
# Procedure, shortened: as §1
# [4] = biological target: GlcNAc(a1-4)Gal(b1-4)GlcNAc(b1-3)Gal(b1-4)Glc
# Procedure, shortened: as §1
# [5] = biological target: GlcNAc(a1-4)Gal(b1-4)GlcNAc(b1-3)Gal(b1-4)GlcNAc
# Procedure, shortened: as §1
# [6] = biological target: GlcNAc(a1-4)Gal(b1-4)GlcNAc(b1-3)Gal(b1-4)GlcNAc(b1-3)Gal(b1-4)GlcNAc
# Procedure, shortened: as §1
# [7] = biological target: GlcNAc(a1-4)Gal(b1-4)GlcNAc(b1-3)Gal(b1-4)[Fuc(a1-3)]GlcNAc(b1-3)Gal(b1-4)[Fuc(a1-3)]GlcNAc
# Procedure, shortened: as §1
# [8] = biological target: GlcNAc(a1-6)Gal(b1-4)GlcNAc
# Procedure, shortened: as §1
# [9] = biological target: GlcNAc(b1-2)Gal(b1-3)GalNAc
# Procedure, shortened: as §1
# [10] = biological target: GlcNAc(b1-2)Man(a1-3)[GlcNAc(b1-2)Man(a1-6)]Man(b1-4)GlcNAc(b1-4)GlcNAc
# Procedure, shortened: as §1
# [11] = biological target: GlcNAc(b1-2)Man(a1-3)[GlcNAc(b1-2)Man(a1-6)]Man(b1-4)GlcNAc(b1-4)[Fuc(a1-6)]GlcNAc
# Procedure, shortened: as §1
# [12] = biological target: GlcNAc(b1-2)Man(a1-3)[GlcNAc(b1-4)][GlcNAc(b1-2)Man(a1-6)]Man(b1-4)GlcNAc(b1-4)GlcNAc
# Procedure, shortened: as §1
# [13] = biological target: GlcNAc(b1-2)Man(a1-3)[GlcNAc(b1-4)][GlcNAc(b1-2)Man(a1-6)]Man(b1-4)GlcNAc(b1-4)[Fuc(a1-6)]GlcNAc
# Procedure, shortened: as §1
# [14] = biological target: GlcNAc(b1-2)[GlcNAc(b1-4)]Man(a1-3)[GlcNAc(b1-2)Man(a1-6)]Man(b1-4)GlcNAc(b1-4)GlcNAc
# Procedure, shortened: as §1
# [15] = biological target: GlcNAc(b1-2)[GlcNAc(b1-4)]Man(a1-3)[GlcNAc(b1-4)][GlcNAc(b1-2)Man(a1-6)]Man(b1-4)GlcNAc(b1-4)GlcNAc
# Procedure, shortened: as §1
# [16] = biological target: GlcNAc(b1-2)[GlcNAc(b1-4)]Man(a1-3)[GlcNAc(b1-4)][GlcNAc(b1-2)[GlcNAc(b1-6)]Man(a1-6)]Man(b1-4)GlcNAc(b1-4)GlcNAc
# Procedure, shortened: as §1
# [17] = biological target: GlcNAc(b1-2)[GlcNAc(b1-4)]Man(a1-3)[GlcNAc(b1-4)][GlcNAc(b1-2)[GlcNAc(b1-6)]Man(a1-6)]Man(b1-4)GlcNAc(b1-4)[Fuc(a1-6)]GlcNAc
# Procedure, shortened: as §1
# [18] = biological target: GlcNAc(b1-2)[GlcNAc(b1-6)]Man(a1-6)[GlcNAc(b1-2)Man(a1-3)]Man(b1-4)GlcNAc(b1-4)GlcNAc
# Procedure, shortened: as §1
# [19] = biological target: GlcNAc(b1-2)[GlcNAc(b1-6)]Man(a1-6)[GlcNAc(b1-2)Man(a1-3)]Man(b1-4)GlcNAc(b1-4)[Fuc(a1-6)]GlcNAc
# Procedure, shortened: as §1
# [20] = biological target: GlcNAc(b1-2)[GlcNAc(b1-6)]Man(a1-6)[GlcNAc(b1-4)][GlcNAc(b1-2)Man(a1-3)]Man(b1-4)GlcNAc(b1-4)GlcNAc
# Procedure, shortened: as §1
# [21] = biological target: GlcNAc(b1-3)Fuc
# Procedure, shortened: as §1
# [22] = biological target: GlcNAc(b1-3)Gal
# Procedure, shortened: as §1
# [23] = biological target: GlcNAc(b1-3)Gal(b1-3)GalNAc
# Procedure, shortened: as §1
# [24] = biological target: GlcNAc(b1-3)Gal(b1-4)Glc
# Procedure, shortened: as §1
# [25] = biological target: GlcNAc(b1-3)Gal(b1-4)GlcNAc
# Procedure, shortened: as §1
# [26] = biological target: GlcNAc(b1-3)Gal(b1-4)GlcNAc(b1-2)Man(a1-3)[GlcNAc(b1-3)Gal(b1-4)GlcNAc(b1-2)Man(a1-6)]Man(b1-4)GlcNAc(b1-4)GlcNAc
# Procedure, shortened: as §1
# [27] = biological target: GlcNAc(b1-3)Gal(b1-4)GlcNAc(b1-2)Man(a1-3)[GlcNAc(b1-3)Gal(b1-4)GlcNAc(b1-2)Man(a1-6)]Man(b1-4)GlcNAc(b1-4)[Fuc(a1-6)]GlcNAc
# Procedure, shortened: as §1
# [28] = biological target: GlcNAc(b1-3)Gal(b1-4)GlcNAc(b1-2)[GlcNAc(b1-3)Gal(b1-4)GlcNAc(b1-6)]Man(a1-6)[GlcNAc(b1-3)Gal(b1-4)GlcNAc(b1-2)Man(a1-3)]Man(b1-4)GlcNAc(b1-4)GlcNAc
# Procedure, shortened: as §1
# [29] = biological target: GlcNAc(b1-3)Gal(b1-4)GlcNAc(b1-3)Gal(b1-4)GlcNAc
# Procedure, shortened: as §1
# [30] = biological target: GlcNAc(b1-3)Gal(b1-4)GlcNAc(b1-3)Gal(b1-4)GlcNAc(b1-2)Man(a1-3)[GlcNAc(b1-3)Gal(b1-4)GlcNAc(b1-3)Gal(b1-4)GlcNAc(b1-2)Man(a1-6)]Man(b1-4)GlcNAc(b1-4)GlcNAc
# Procedure, shortened: as §1
# [31] = biological target: GlcNAc(b1-3)Gal(b1-4)GlcNAc(b1-3)Gal(b1-4)GlcNAc(b1-2)Man(a1-3)[GlcNAc(b1-3)Gal(b1-4)GlcNAc(b1-3)Gal(b1-4)GlcNAc(b1-2)Man(a1-6)]Man(b1-4)GlcNAc(b1-4)[Fuc(a1-6)]GlcNAc
# Procedure, shortened: as §1
# [32] = biological target: GlcNAc(b1-3)Gal(b1-4)GlcNAc(b1-3)Gal(b1-4)GlcNAc(b1-2)[GlcNAc(b1-3)Gal(b1-4)GlcNAc(b1-3)Gal(b1-4)GlcNAc(b1-6)]Man(a1-6)[GlcNAc(b1-3)Gal(b1-4)GlcNAc(b1-3)Gal(b1-4)GlcNAc(b1-2)Man(a1-3)]Man(b1-4)GlcNAc(b1-4)[Fuc(a1-6)]GlcNAc
# Procedure, shortened: as §1
# [33] = biological target: GlcNAc(b1-3)Gal(b1-4)GlcNAc(b1-3)Gal(b1-4)GlcNAc(b1-3)Gal(b1-4)GlcNAc(b1-2)Man(a1-3)[GlcNAc(b1-3)Gal(b1-4)GlcNAc(b1-3)Gal(b1-4)GlcNAc(b1-3)Gal(b1-4)GlcNAc(b1-2)Man(a1-6)]Man(b1-4)GlcNAc(b1-4)GlcNAc
# Procedure, shortened: as §1
# [34] = biological target: GlcNAc(b1-3)Gal(b1-4)GlcNAc(b1-3)Gal(b1-4)GlcNAc(b1-3)Gal(b1-4)GlcNAc(b1-2)Man(a1-3)[GlcNAc(b1-3)Gal(b1-4)GlcNAc(b1-3)Gal(b1-4)GlcNAc(b1-3)Gal(b1-4)GlcNAc(b1-2)Man(a1-6)]Man(b1-4)GlcNAc(b1-4)[Fuc(a1-6)]GlcNAc
# Procedure, shortened: as §1
# [35] = biological target: GlcNAc(b1-3)Gal(b1-4)GlcNAc(b1-3)Gal(b1-4)GlcNAc(b1-3)Gal(b1-4)GlcNAc(b1-2)[GlcNAc(b1-3)Gal(b1-4)GlcNAc(b1-3)Gal(b1-4)GlcNAc(b1-3)Gal(b1-4)GlcNAc(b1-6)]Man(a1-6)[GlcNAc(b1-3)Gal(b1-4)GlcNAc(b1-3)Gal(b1-4)GlcNAc(b1-3)Gal(b1-4)GlcNAc(b1-2)Man(a1-3)]Man(b1-4)GlcNAc(b1-4)[Fuc(a1-6)]GlcNAc
# Procedure, shortened: as §1
# [36] = biological target: GlcNAc(b1-3)Gal(b1-4)GlcNAc(b1-3)Gal(b1-4)GlcNAc(b1-3)Gal(b1-4)GlcNAc(b1-3)Gal(b1-4)GlcNAc(b1-2)Man(a1-3)[GlcNAc(b1-3)Gal(b1-4)GlcNAc(b1-3)Gal(b1-4)GlcNAc(b1-3)Gal(b1-4)GlcNAc(b1-3)Gal(b1-4)GlcNAc(b1-2)Man(a1-6)]Man(b1-4)GlcNAc(b1-4)GlcNAc
# Procedure, shortened: as §1
# [37] = biological target: GlcNAc(b1-3)Gal(b1-4)GlcNAc(b1-3)Gal(b1-4)GlcNAc(b1-3)Gal(b1-4)GlcNAc(b1-3)Gal(b1-4)GlcNAc(b1-2)Man(a1-3)[GlcNAc(b1-3)Gal(b1-4)GlcNAc(b1-3)Gal(b1-4)GlcNAc(b1-3)Gal(b1-4)GlcNAc(b1-3)Gal(b1-4)GlcNAc(b1-2)Man(a1-6)]Man(b1-4)GlcNAc(b1-4)[Fuc(a1-6)]GlcNAc
# Procedure, shortened: as §1
# [38] = biological target: GlcNAc(b1-3)Gal(b1-4)GlcNAc(b1-3)Gal(b1-4)GlcNAc(b1-3)Gal(b1-4)GlcNAc(b1-3)Gal(b1-4)GlcNAc(b1-2)[GlcNAc(b1-3)Gal(b1-4)GlcNAc(b1-3)Gal(b1-4)GlcNAc(b1-3)Gal(b1-4)GlcNAc(b1-3)Gal(b1-4)GlcNAc(b1-6)]Man(a1-6)[GlcNAc(b1-3)Gal(b1-4)GlcNAc(b1-3)Gal(b1-4)GlcNAc(b1-3)Gal(b1-4)GlcNAc(b1-3)Gal(b1-4)GlcNAc(b1-2)Man(a1-3)]Man(b1-4)GlcNAc(b1-4)[Fuc(a1-6)]GlcNAc
# Procedure, shortened: as §1
binder,measurement,setting,value
B1,glycan array binding signal (z-score),[1],-0.193
same,glycan array binding signal (z-score),[2],-0.428
same,glycan array binding signal (z-score),[3],-0.088
same,glycan array binding signal (z-score),[4],-0.061
same,glycan array binding signal (z-score),[5],0.007
same,glycan array binding signal (z-score),[6],-0.067
same,glycan array binding signal (z-score),[7],-0.189
same,glycan array binding signal (z-score),[8],0.159
same,glycan array binding signal (z-score),[9],0.148
same,glycan array binding signal (z-score),[10],0.173
same,glycan array binding signal (z-score),[11],-0.486
same,glycan array binding signal (z-score),[12],-0.144
same,glycan array binding signal (z-score),[13],0.138
same,glycan array binding signal (z-score),[14],-0.363
same,glycan array binding signal (z-score),[15],0.657
same,glycan array binding signal (z-score),[16],-0.559
same,glycan array binding signal (z-score),[17],1.36
same,glycan array binding signal (z-score),[18],2.16
same,glycan array binding signal (z-score),[19],0.58
same,glycan array binding signal (z-score),[20],0.567
same,glycan array binding signal (z-score),[21],-0.718
same,glycan array binding signal (z-score),[22],1.58
same,glycan array binding signal (z-score),[23],-0.43
same,glycan array binding signal (z-score),[24],-0.193
same,glycan array binding signal (z-score),[25],-1.56
same,glycan array binding signal (z-score),[26],1.94
same,glycan array binding signal (z-score),[27],0.507
same,glycan array binding signal (z-score),[28],0.891
same,glycan array binding signal (z-score),[29],-1.26
same,glycan array binding signal (z-score),[30],1.08
same,glycan array binding signal (z-score),[31],-0.271
same,glycan array binding signal (z-score),[32],1.76
same,glycan array binding signal (z-score),[33],0.771
same,glycan array binding signal (z-score),[34],0.885
same,glycan array binding signal (z-score),[35],2.26
same,glycan array binding signal (z-score),[36],0.578
same,glycan array binding signal (z-score),[37],-0.107
same,glycan array binding signal (z-score),[38],-0.243

# Three entries from above, reformatted.
binder	measurement	setting	value
B1	glycan array binding signal (z-score)	[10]	0.173
same	glycan array binding signal (z-score)	[11]	-0.486
same	glycan array binding signal (z-score)	[12]	-0.144
